The list shows only some results of the screen, not a fair sample: it gathers some chemical classes. Not every dose and run of a compound is shown. T/C is the treated group as % of the vehicle group. For survival time, the PubChem record calls one and a half times the control and up active, and a quarter to a half above the control has no call in these data; cut-offs in other NCI protocols can differ. Some T/C values are marked as having no survivor count here; that says nothing about deaths at the dose. Schedule codes are those of the source, read here as Q, the interval in days (D) or hours (H), X, the number of doses. Some doses were run more than once; their values stand side by side, smallest first.

The test deals with CD2F1 mice, L1210 leukemia ip, survival T/C. Description: NCI In Vivo Anticancer Drug Screen. Data for tumor model L1210 Leukemia (intraperitoneal) in CD2F1 (CDF1) mice. The following applies: T/C endpoint: mean survival time, higher T/C = longer survival. The method, boiled down: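 Transplantable tumor in mice; compound-treated vs vehicle-treated groups. Read-out = treated/control ratio of the measured endpoint.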

As for `BrCCN(CCBr)c1ccc2c(c1)Cc1ccccc1-2`, the T/C by setting is: (dose: 3.0 mg/kg/injection, schedule: Q01DX009 (ip), vehicle: saline with Tween-80) 108 % of control [survivor count not shown]; (dose: 3.13 mg/kg/injection, schedule: Q01DX009 (ip), vehicle: saline with Tween-80) 121 % of control [survivor count not shown]; (dose: 6.0 mg/kg/injection, schedule: Q01DX009 (ip), vehicle: saline with Tween-80) 116 % of control [survivor count not shown]; (dose: 6.25 mg/kg/injection, schedule: Q01DX009 (ip), vehicle: saline with Tween-80) 120 % of control [survivor count not shown]; (dose: 12.0 mg/kg/injection, schedule: Q01DX009 (ip), vehicle: saline with Tween-80) 130 % of control [survivor count not shown]; (dose: 12.5 mg/kg/injection, schedule: Q01DX009 (ip), vehicle: saline with Tween-80) 128 [survivor count not shown] and 146 % of control [survivor count not shown]. The T/C reads like this: (dose: 24.0 mg/kg/injection, schedule: Q01DX009 (ip), vehicle: saline with Tween-80) 132 % of control [survivor count not shown]; (dose: 25.0 mg/kg/injection, schedule: Q01DX009 (ip), vehicle: saline with Tween-80) 135 [survivor count not shown] and 151 % of control [survivor count not shown]; (dose: 48.0 mg/kg/injection, schedule: Q01DX009 (ip), vehicle: saline with Tween-80) 130 % of control [survivor count not shown]; (dose: 50.0 mg/kg/injection, schedule: Q01DX009 (ip), vehicle: saline with Tween-80) 116 % of control [survivor count not shown]; (dose: 100.0 mg/kg/injection, schedule: Q01DX009 (ip), vehicle: saline with Tween-80) 97 [survivor count not shown] and 108 % of control [survivor count not shown]; (dose: 100.0 mg/kg/injection, schedule: Q04DX003 (ip), vehicle: saline with Tween-80) 136 % of control [survivor count not shown]. In addition, the T/C was 144 % of control [survivor count not shown] (dose: 200.0 mg/kg/injection, schedule: Q04DX003 (ip), vehicle: saline with Tween-80) and 113 % of control [survivor count not shown] (dose: 400.0 mg/kg/injection, schedule: Q04DX003 (ip), vehicle: saline with Tween-80).

Turning to `C1CCC(NC2CCCCC2)CC1.O=C(O)C(O)c1ccc(N(CCCl)CCCl)cc1` (stereo not given), the T/C (dose: 12.5 mg/kg/injection, schedule: Q01DX009 (ip), vehicle: Klucel (hydroxypropylcellulose) (HPC)) was 127 % of control [survivor count not shown]; the T/C (dose: 25.0 mg/kg/injection, schedule: Q01DX009 (ip), vehicle: Klucel (hydroxypropylcellulose) (HPC)) was 121 % of control [survivor count not shown]; the T/C (dose: 50.0 mg/kg/injection, schedule: Q01DX009 (ip), vehicle: Klucel (hydroxypropylcellulose) (HPC)) was 128 % of control [survivor count not shown].

`O=P1(N(CCCl)CCCl)OCc2ccccc2O1` (stereo not given): the T/C (dose: 25.0 mg/kg/injection, schedule: Q01DX009 (ip), vehicle: water) is 106 % of control [survivor count not shown]; the T/C (dose: 31.8 mg/kg/injection, schedule: Q01DX001 (ip), vehicle: other) was 108 % of control [survivor count not shown]; the T/C (dose: 50.0 mg/kg/injection, schedule: Q01DX009 (ip), vehicle: water) is 105 % of control [survivor count not shown]; the T/C (dose: 62.5 mg/kg/injection, schedule: Q01DX001 (ip), vehicle: other) was 108 % of control [survivor count not shown]; the T/C (dose: 100.0 mg/kg/injection, schedule: Q01DX009 (ip), vehicle: water) is 106 % of control [survivor count not shown]; the T/C (dose: 125.0 mg/kg/injection, schedule: Q01DX001 (ip), vehicle: other) is 122 % of control [survivor count not shown]. Besides, the T/C is 111 % of control [survivor count not shown] (dose: 200.0 mg/kg/injection, schedule: Q01DX009 (ip), vehicle: water) and 120 % of control [survivor count not shown] (dose: 250.0 mg/kg/injection, schedule: Q01DX001 (ip), vehicle: other).

Source of the values: PubChem BioAssay AID256 (DTP/NCI, 2004).
